Test results taken from article PMC7385130.
Results are given in words; binding and its absence hold for the method and conditions named. Binding seen in cells or lysates may run through a third protein. Some binding calls cover weakened binding; strength is not graded here.

The chains behind the UniProt entries cited, without tags or fusion partners. Where a name states a change or a piece, a line headed by the entry shows the natural chain unless it says otherwise.
UniProt Q13546: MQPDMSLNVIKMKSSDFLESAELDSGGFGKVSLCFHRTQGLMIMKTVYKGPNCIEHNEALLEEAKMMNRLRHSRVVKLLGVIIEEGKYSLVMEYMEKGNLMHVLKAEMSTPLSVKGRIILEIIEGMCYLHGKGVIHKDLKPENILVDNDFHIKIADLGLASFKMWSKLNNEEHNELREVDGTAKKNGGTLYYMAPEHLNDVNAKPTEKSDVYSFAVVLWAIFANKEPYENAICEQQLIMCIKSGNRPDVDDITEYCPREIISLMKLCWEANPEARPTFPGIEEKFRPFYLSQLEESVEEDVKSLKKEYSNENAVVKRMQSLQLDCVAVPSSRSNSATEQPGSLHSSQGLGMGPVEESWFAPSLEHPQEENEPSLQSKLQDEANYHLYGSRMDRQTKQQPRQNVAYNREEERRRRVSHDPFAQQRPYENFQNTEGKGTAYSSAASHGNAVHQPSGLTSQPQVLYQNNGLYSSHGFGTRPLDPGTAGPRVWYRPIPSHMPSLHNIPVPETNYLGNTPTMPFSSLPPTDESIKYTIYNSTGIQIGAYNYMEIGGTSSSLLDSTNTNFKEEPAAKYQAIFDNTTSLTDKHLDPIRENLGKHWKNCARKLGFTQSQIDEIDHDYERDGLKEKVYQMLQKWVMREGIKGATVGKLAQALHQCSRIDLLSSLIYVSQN
UniProt Q9H1Y0: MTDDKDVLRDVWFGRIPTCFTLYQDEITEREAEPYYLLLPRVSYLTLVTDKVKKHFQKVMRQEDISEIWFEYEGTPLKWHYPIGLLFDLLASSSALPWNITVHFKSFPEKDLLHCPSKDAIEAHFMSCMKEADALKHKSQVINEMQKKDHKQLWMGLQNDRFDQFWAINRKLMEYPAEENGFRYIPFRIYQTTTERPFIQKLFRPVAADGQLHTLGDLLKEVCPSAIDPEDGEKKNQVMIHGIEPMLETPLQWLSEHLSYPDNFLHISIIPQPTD
UniProt Q9Y572: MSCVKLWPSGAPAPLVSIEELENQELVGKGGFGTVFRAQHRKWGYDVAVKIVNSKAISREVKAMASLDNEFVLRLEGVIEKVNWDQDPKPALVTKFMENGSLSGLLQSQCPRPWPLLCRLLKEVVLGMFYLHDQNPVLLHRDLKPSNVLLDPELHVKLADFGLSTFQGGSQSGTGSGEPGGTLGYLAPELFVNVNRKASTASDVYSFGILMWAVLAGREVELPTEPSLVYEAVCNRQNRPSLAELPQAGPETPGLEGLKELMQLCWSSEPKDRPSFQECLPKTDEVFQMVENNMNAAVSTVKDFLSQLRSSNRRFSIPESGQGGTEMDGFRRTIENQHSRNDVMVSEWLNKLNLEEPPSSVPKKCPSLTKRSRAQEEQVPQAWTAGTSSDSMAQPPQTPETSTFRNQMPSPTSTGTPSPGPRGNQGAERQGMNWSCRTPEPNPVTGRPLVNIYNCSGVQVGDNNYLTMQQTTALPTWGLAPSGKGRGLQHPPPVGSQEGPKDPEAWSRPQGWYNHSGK

target: receptor-interacting protein kinase (RIPK) 1 (human (endogenous in monocyte derived macrophages)) (UniProt Q13546); assay: co-IP

binding, binds:
sequestosome 1 (from UniProt Q13501 1-440), ATG12–ATG5 complex (from UniProt Q9H1Y0 1-275; O94817 1-140), receptor-interacting protein kinase (RIPK) 3 (from UniProt Q9Y572 1-518)
